Source: publication PMC3422304
No constants are given. Whether binding was seen depends on the method and setting. In cells and extracts the contact can be indirect. A result given as binding can be weak or reduced; the word gives no strength.

Target: Pcf11-myc (Schizosaccharomyces pombe)
Experiment: co-IP; total cell lysates of S. pombe strains expressing Rhn1-PK alone or with Dhp1-myc, Din1-myc or Pcf11-myc; immunoprecipitation with anti-myc; immunoprecipitates and inputs analysed on Western blots

B1: Rhn1-PK (protein, UniProt O74814 1-387)
chain: MALTPDTVSSKLATLNETQESITGIAHWVMFHKRYADEIVQIWLEALYESSSNKKLLLLYLLNEVVQQSRVKKISEYIDAVSPYVVNSVADAYASVPASIKTKIKYVFDVWCQRGIFSKEILLSLQERFNNAENSGHSNYYPVGPPEWAPYTRLMTQTSLYAKSAHSTKTVVDALYKSYLEKQSDYSELLDNYKKQLNKASESCKGNYQACIESRSTLITSLESLIEEQKKLLSEEEESLKSVESIISNLENKESTTATSTLTDAGFGDKSSTAGKHNVETTSPPSSSPNSDDAYSPQVDSYSPSINSVPYTSNIVENPSEDNLSPLPPPASGPYSQEEEETSLFKSQRKEENEEESKELPEDSDIYGKDSSPSSDDSSAAGLYGDS
B1 was tested, and the binding was “binds”.
